Values from PubChem BioAssay AID743121 (NCATS, 2013).
This is a random part of about 26,000 reagents tested. 167 of them (0.63%) count as active. 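Calls are per gene from RSA p-values that are not deposited; an individual active-marked siRNA can sensitise only weakly.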 Reagents against one gene are numbered here. Not all columns of the deposit are shown.

Test: 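Knock-downs that sensitise breast cancer cells to camptothecin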 (primary screen)
Cell system: MDA-MB-231 cells, a human breast cancer line
Knock-down reagent: single siRNA against human genes, 20 nM siRNA (0.8 pmol per well)
Time to read-out: 120 h (drug added 48 h after transfection, read 72 h later)
Challenge: camptothecin 20 nM (about EC30) for 72 h; vehicle 0.1% DMSO in parallel plates
Measurement: 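CellTiter-Glo ATP signal, scaled to control siRNA as percent viability; sensitisation given as log2 of untreated divided by camptothecin-treated viability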
Scale: log2 vehicle/camptothecin viability: higher = stronger sensitisation to camptothecin
Rule for the call: 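Active genes have an RSA gene-level p-value below 0.001, computed from the ratios of their separate siRNAs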

log2 vehicle/camptothecin viability, by target gene and reagent
CAD (GeneID 790): #1 -0.179 inactive; #2 -0.289 inactive; #3 0.62 inactive; #4 -0.346 inactive
ASB1 (GeneID 51665): #1 -0.191 inactive; #2 0.102 inactive; #3 -0.176 inactive; #4 -0.0598 inactive
MXRA5 (GeneID 25878): #1 -0.219 inactive; #2 -0.0112 inactive; #3 -0.00318 inactive; #4 -0.0421 inactive
PKM (GeneID 5315): #1 -0.179 inactive; #2 -0.25 inactive; #3 -0.159 inactive; #4 -0.292 inactive
EPHA10 (GeneID 284656): #1 0.0418 inactive; #2 -0.544 inactive; #3 -0.219 inactive; #4 -0.295 inactive; #5 0.176 inactive; #6 0.412 inactive; #7 -0.026 inactive; #8 0.208 inactive
CAT (GeneID 847): #1 0.0704 inactive; #2 0.107 inactive; #3 0.104 inactive; #4 -0.205 inactive
STC2 (GeneID 8614): #1 -0.368 inactive; #2 -0.291 inactive; #3 -0.0405 inactive; #4 -0.129 inactive
VTI1B (GeneID 10490): #1 -0.247 inactive; #2 -0.284 inactive; #3 -0.0707 inactive
EDAR (GeneID 10913): #1 -0.333 inactive; #2 -0.268 inactive; #3 -0.28 inactive; #4 -0.417 inactive
PTPRF (GeneID 5792): #1 -0.16 inactive; #2 -0.551 inactive; #3 -0.0813 inactive; #4 -0.619 inactive
ANAPC1 (GeneID 64682): #1 -0.142 inactive; #2 -0.0195 inactive; #3 -0.00976 inactive; #4 -0.538 inactive; #5 -0.186 inactive; #6 -0.302 inactive

Not a retest: an excerpt of the list.
log2 vehicle/camptothecin viability, by target gene and reagent
MXRA5 (GeneID 25878): #3 -0.00318 inactive; #4 -0.0421 inactive
PKM (GeneID 5315): #1 -0.179 inactive
